Reference: PubChem BioAssay AID1259415 (National Center for Advancing Translational Sciences (NCATS), 2018)
Values joined by “and” are separate entries in the source; they are usually repeats but may differ in a detail not shown here. Identical values can stand only once. Among all 410,000 compounds or so, about 18,000 (4.4%) were called active. Inconclusive results, whose numbers are uncertain, are shown with a selection of clear calls. Rule as the data show it: active = activity change below about -60%; inconclusive = no clear call, values can overlap the other calls; inactive = above about -39%.

Assay: qHTS Assay for inhibitors of the human cytomegalovirus (HCMV)
Details: HFF cells, HCMV-luciferase reporter, 72 h; at 57.5 µM; active compounds read low
How it was run: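 Screen run at 2 compound doses on HFFs infected with reporter HCMV, MOI 1 PFU/cell. Luciferase activity from cell lysates at 72 h post infection gave inhibition relative to buffer-only and Salinomycin wells.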
% is scaled to controls: 0 for no effect and ±100 for the full control effect.

SMILES | activity change, negative = inhibition
COc1cc(NC(=O)Nc2ccc(Cl)c(Cl)c2)c(C(=O)O)cc1OC | inconclusive: 0%
CC1C(=O)Nc2ccccc2N1C(=O)c1cccc(C(F)(F)F)c1 (configuration not stated) | inactive: 31.6%
Cc1ccc(-c2nnn(CC(=O)O)n2)cc1 | inactive: -3.78%
O=C(CSc1nc(-c2ccccc2)c(-c2ccccc2)o1)NC1CCS(=O)(=O)C1 (configuration not stated) | inconclusive: -42%
COCc1c(N)c(C)nc(Cl)c1C#N | inconclusive: -50.4%
O=C(N/N=C/c1ccc([N+](=O)[O-])o1)c1cc2ccccc2o1 | inconclusive: 0%
C=CCOC(=O)C1=C(C)NC(SCC(=O)Nc2ccc(C)c(Cl)c2)=C(C#N)C1c1ccco1 (configuration not stated) | inconclusive: -51.8%
CCCCCc1ccc(-c2ccc(/C=C/C(=O)O)cc2)nc1 | inconclusive: -56.2%
Cc1ccccc1NCc1ccc(O)c2ncccc12 | active: -97.5%
Cc1nc2ccccc2c(=O)n1/N=C/c1cccs1 | inconclusive: -48.8%
NC(=NC(=O)c1ccccc1)N1N=CCC1c1ccccc1 (configuration not stated) | inactive: -22.4%
O=C(CN1C(=O)NC2(CCCC2)C1=O)OCc1ccccc1F | inconclusive: -44.6%
C=CCOn1c(C)c(C(C)=O)c2c3no[n+]([O-])c3ccc21 | inconclusive: -45.4%
Cc1ccc(-n2c(-c3ccc(Cl)cc3)n[nH]c2=S)c(C)c1 | inconclusive: -49%
O=C(Cn1nc(Cl)nc1Cl)c1ccc([N+](=O)[O-])cc1 | inactive: -14.8%
C[C@]12c3[nH]c4ccc(Cl)cc4c3CCN1C(=O)[C@@H](CC(=O)NCCc1ccccn1)C[C@@H]2C(=O)N1CCCCC1 | inactive: -18.7%
CCN(CC)CCCNC(=O)CCc1c(C)nc2c(c1C)c(=O)n(C)c(=O)n2C | active: -65.1%
COc1cccc(OCC(=O)N(C)Cc2nc(-c3cccc(C)c3)no2)c1 | inconclusive: -50.9%
CCc1cccc(-n2nnc(S(=O)(=O)c3ccc(OC)cc3)c2C)c1 | inactive: -35.4%
COCCn1c(C)cc(O)c(C(c2ccccc2F)N2CCN(c3ccccc3)CC2)c1=O (configuration not stated) | inactive: -11%
COc1ccc(C2=NN(CCC(=O)NCCc3ccccc3)C(=O)CC2)cc1 | inactive: 13.7%
Cc1cc(NC(=O)c2c(F)cccc2F)n(-c2nc3ccccc3[nH]2)n1 | active: -89%

SMILES | activity change, negative = inhibition
COc1cc(CNS(=O)(=O)CCl)cc(OC)c1OC | inactive: 29%
COc1ccc(CNC(=O)C2CCN(S(=O)(=O)N3CCCC3)CC2)c(OC)c1 | inconclusive: 0%
OC(c1cccnc1)c1nc(-c2cccc(F)c2)cs1 (configuration not stated) | inconclusive: -49.9%
CCCCCc1cc(O)c2c(C)cc(=O)oc2c1 | active: -105%
CCCC(C(=O)NC1CCCC1)N(Cc1ccccc1Cl)C(=O)c1snc(C(N)=O)c1N (configuration not stated) | inconclusive: -43%
O=C(Nc1ccc(CN2CCOCC2)cc1)c1ccco1 | inactive: 48.2%
COCCn1c(C)cc(O)c(C(c2ccccc2Cl)N2CCCCC2)c1=O (configuration not stated) | inactive: 1.34%
N#Cc1ccccc1OCC(=O)N1CCN(c2ccccc2)CC1 | inactive: -5.79%
COc1ccc(Nc2nc(C(=O)NCCCN3CCOCC3)cs2)cc1 | inactive: -11.2%
CCCCN(C)C(=O)Cn1c(=O)oc2cc(S(=O)(=O)N3CC(C)CC(C)C3)ccc21 (configuration not stated) | inconclusive: -54.4%
C/C(=N\NC(=O)C1CC1c1ccccc1)c1ccc(C)s1 (configuration not stated) | inactive: -0.983%
Cc1[nH]c(C)c(S(=O)(=O)Nc2ccc(OC(F)(F)F)cc2)c1C(=O)N1CCCCC1 | inconclusive: -41.8%
Cc1ccc(CN2C3CCCC2CC(NC(=O)c2ccc(C)cc2)C3)cc1 (configuration not stated) | inconclusive: -41.1%
CCn1c(=O)c(=O)[nH]c2cc(C(=O)NCC3CCCCC3)ccc21 | inconclusive: -53.1%
O=C(CCl)Nc1cc(SCC(O)CO)cc([N+](=O)[O-])c1 (configuration not stated) | active: -98.8%
COc1cc([N+](=O)[O-])ccc1NC(=O)Nc1cnccn1 | active: -61.2%
Cc1ccc2nc3sc(C(=O)N4CCOCC4)c(N)c3cc2c1 | active: -68.5%
Cc1ccc(N(CC(O)Cn2c3ccccc3c3ccccc32)S(=O)(=O)c2ccc(F)cc2)cc1 (configuration not stated) | active: -92.3%
COc1cc(/C=N/NC(=Nc2ccc(C)cc2)c2nc3ccccc3s2)ccc1O | active: -68.4%
CC(Sc1nnc(-c2cccnc2)n1-c1ccccc1F)C(=O)N1CCCc2ccccc21 (configuration not stated) | active: -64.6%
CN(C)S(=O)(=O)c1ccc(C(=O)NNC(=O)C2COc3ccccc3O2)cc1 (configuration not stated) | inconclusive: -48.7%
CSc1nc(N)nc(SCC(=O)C23CC4CC(CC(C4)C2)C3)c1C#N | inactive: -32.7%

SMILES | activity change, negative = inhibition
CCOc1cccc2sc(=NC(=O)CCS(=O)(=O)c3ccc(F)cc3)n(C)c12 | inconclusive: -41.3%
Nc1nonc1-n1nnc(C(=O)N/N=C/c2cc(Br)ccc2O)c1CNc1ccccc1 | active: -92.7%
COc1ccc(C(=O)NNC(=O)CSc2nnc(C)n2CC2CCCO2)cc1 (configuration not stated) | inconclusive: -52.7%
COc1cccc(NC(=O)Cn2c(=O)n(-c3ccccc3)c(=O)c3ccc(C(=O)NCc4ccc5c(c4)OCO5)cc32)c1 | inactive: -39.8%
Cc1ccc(-n2c(-c3ccncc3)nnc2-c2ccco2)cc1 | inconclusive: -42.1%
CCOC(=O)c1nc(Nc2cc(C)cc(C)c2)c2ccccc2n1 | inconclusive: -59.7%
O=C(Cc1ccccc1)NCC(=O)Nc1cccc(Br)c1 | inconclusive: -46.1%
CC(=O)N1CCc2c(sc3c2c(=O)n(CCc2ccccc2)c(=O)n3CC(=O)Nc2ccccc2F)C1 | inconclusive: -45.2%
CCS(=O)(=O)N1CCN(c2ccc(Cl)cc2[N+](=O)[O-])CC1 | inconclusive: -40.2%
O=C(COC(=O)CCCc1nc2ccccc2s1)NC(=O)NCc1ccco1 | inconclusive: -58.6%
CCOC(=O)c1c(C)n(C)c2ccc(OCC(N)=O)cc12 | inconclusive: -53.5%
COc1cccc(-c2nc(SCc3cccc(Br)c3)n3[nH]c(=O)cc3n2)c1 | inactive: 10.5%
COc1ccc(/C=N/OCC(=O)Nc2ccc3c(c2)OCO3)c(OC)c1 | inconclusive: -51.9%
Cc1cc(C)c2c(CN3CCN(Cc4ccccc4)CC3)cc(=O)oc2c1 | active: -61.7%
COc1ccc(F)c(CN2CCC(CO)(Cc3cccc(C(F)(F)F)c3)CC2)c1 | inactive: -5.3%
COc1ccc(-c2ccnc3c(Br)c(C)nn23)cc1 | inconclusive: -46%
Cc1ncccc1C(=O)N1CCCC(CNC(=O)c2ccc(-c3ccccc3)cc2)C1 (configuration not stated) | inconclusive: -56.4%
Cc1ccc(NC(=S)NC2CCCCC2)cc1S(=O)(=O)N(C)C | inconclusive: -43.2%
Cc1ccc(C(=O)Nc2cccc([N+](=O)[O-])c2)cc1S(=O)(=O)Nc1ccc(NC(=O)c2ccccc2)cc1 | active: -74.1%
CC(=O)Nc1ccc(S(=O)(=O)NCc2ccc(C(=O)NCCCN3CCC(C)CC3)cc2)cc1 | inconclusive: -46.1%
Cc1nc2ccccc2cc1OCc1ccccc1 | active: -93.1%
Cc1cccn2c(=O)cc(COc3ccc(NC(=O)C(C)C)cc3)nc12 | inactive: -22.3%

SMILES | activity change, negative = inhibition
CC(C)CC(=O)Nc1nnc(CCc2ccccc2)s1 | inactive: 45.8%
CCOc1ccc(OCCSc2nc3ccccc3[nH]2)cc1 | active: -75.8%
CC(C)C(=O)NC(=S)/C=C1/N(C)c2ccccc2C1(C)C | inconclusive: -48%
Cn1cc(/C=N/NC(=O)COc2ccccc2[N+](=O)[O-])c2ccccc21 | active: -63.6%
Cc1ccc2oc(=O)c3cc(C(=O)Nc4ccc(C)c(F)c4)sc3c2c1 | inactive: -2.72%
COc1cccc(CN2CC(C(=O)NCCN3CCOCC3)CCC2=O)c1 (configuration not stated) | inactive: -27%
COc1cccc(OC)c1C(=O)Nc1ccccc1N1CCCCC1 | inconclusive: -57.6%
Cc1ccc(NC(=O)c2cc(N3C(=O)C=CC3=O)ccc2N2CCOCC2)cc1Cl | inconclusive: -51.5%
CN1C[C@@H]2[C@@H]3C(=O)N(Cc4ccccc4)C(=O)[C@@H]3[C@](Cc3ccccc3)(C1=O)N2C(=O)c1ccc(Cl)cc1 | inactive: 3.51%
COC(=O)[C@]12C[C@H](CC(=O)NCC34CC5CC(CC(C5)C3)C4)C(=O)N(Cc3ccc4c(c3)OCO4)C1=C[C@H](COCc1ccccc1)O[C@@H]2C | active: -62.7%
COc1ccc(CNCCC(c2ccc(C)cc2)c2ccco2)cc1 (configuration not stated) | active: -77.9%
CCOC(=O)c1nc(Nc2ccc(Nc3ccccc3)cc2)c2ccccc2n1 | inconclusive: -51.1%
CC1(C(=O)Nc2ccc(F)cc2F)CCN1C(=O)CCC1CCCC1 (configuration not stated) | inconclusive: -42.1%
COc1cc(/C=N/NC(=O)CNC(=O)c2ccc3c(c2)OCCO3)ccc1O | inconclusive: -43%
Cc1ccccc1NC(=O)C(Cc1ccccc1)N1Cc2ccccc2C1=O (configuration not stated) | inconclusive: -40.9%
C=CCNC(=O)c1ccccc1NC(=O)c1ccccc1 | inconclusive: -43.5%
Cc1cccc(OCC(=O)Nc2ccc(S(=O)(=O)Nc3onc(C)c3C)cc2)c1C | inactive: 20% and inactive: -31.5%
CC(=O)OCCNC(=O)c1cccnc1 | inconclusive: -43.1%
CC(C)C1CC(CCNCc2ccc(N(C)C)cc2)(c2ccccc2)CCO1 (configuration not stated) | inconclusive: -40.9%
Cc1nn(-c2ccccc2)c(-n2cccc2)c1C(=O)N1CCN(c2ccccc2)CC1 | inactive: 2.51%
COC(=O)[C@@]12C[C@@H](CC(=O)NCc3ccc(C)o3)C(=O)N(Cc3ccc4c(c3)OCO4)C1=CCC(C)(C)C2 | inconclusive: -41.9%
